Some of these results come from one statement about several compounds together.
Assay: Critical wavelength (λcrit), approximate in-house measurement
Assay type: physicochemical
Details: values only approximate
Text: As the precise test for critical wavelength was unable to be replicated exactly by the inventors due to the need for specialist equipment and a specific calibration of the spectrophotometer, these values are only approximate to a degree. […] This represents a highly useful result and so, compounds based around this benzoyl substitution pattern shown, are especially preferred.

For COc1ccc(/C=C/C(=O)C2=CN(CC(C)C)CCC2(C)C)cc1 [Compound 34, (E)-1-(1-isobutyl-4,4-dimethyl-1,4,5,6-tetrahydropyridin-3-yl)-3-(4-methoxyphenyl)prop-2-en-1-one], which critical wavelength is on record?
Its critical wavelength is greater than 370 nm.

Which critical wavelength does the source give for CC(C)CN1C=C(C(=O)/C=C/C=Cc2ccccc2)C(C)(C)CC1 [Compound 35, (2E, 4E/Z)-1-(1-isobutyl-4,4-dimethyl-1,4,5,6-tetrahydropyridin-3-yl)-5-phenylpenta-2,4-dien-1-one] here?
Its critical wavelength is greater than 370 nm.

With CC(C)CN1C=C(C(=O)/C=C/c2ccc(C(F)(F)F)cc2)C(C)(C)CC1 [Compound 33, (E)-1-(1-Isobutyl-4,4-dimethyl-1,4,5,6-tetrahydropyridin-3-yl)-3-(4-(trifluoromethyl)phenyl)prop-2-en-1-one] as the compound, how does the critical wavelength read?
The critical wavelength was greater than 370 nm.

Which critical wavelength does the source give for C=CC(=O)C1=CN(c2ccccc2)CCC1(C)C [Compound 48, 1-(4,4-dimethyl-1-phenyl-1,4,5,6-tetrahydropyridin-3-yl)prop-2-en-1-one] here?
Its critical wavelength is greater than 370 nm.

With CC(C)CN1C=C(C(=O)/C=C/c2ccccc2)C(C)(C)CC1 [Compound 31, (E)-1-(1-Isobutyl-4,4-dimethyl-1,4,5,6-tetrahydropyridin-3-yl)-3-phenylprop-2-en-1-one] as the compound, how does the critical wavelength read?
Its critical wavelength is greater than 370 nm.

For C=CC(=O)C1=CN(c2ccc(OC)cc2)CCC1(C)C [Compound 53, 1-(1-(4-methoxyphenyl)-4,4-dimethyl-1,4,5,6-tetrahydropyridin-3-yl)prop-2-en-1-one], which critical wavelength is on record?
The critical wavelength was greater than 370 nm.

Which critical wavelength does the source give for C=C/C=C/C(=O)C1=CN(CC(C)C)CCC1(C)C [Compound 38, (2E/Z) 1-(1-isobutyl-4,4-dimethyl-1,4,5,6-tetrahydropyridin-3-yl)penta-2,4-dien-1-one] here?
Its critical wavelength is greater than 370 nm.

From patent US10519111B2, “UV absorbing compounds, compositions comprising same and uses thereof” (CORAL SUNSCREEN PTY LTD, priority 2013, dated 2019)
